The values below come from PubChem BioAssay AID256 (DTP/NCI, 2004).

The list is a part of this screen's results and no random one: it gathers some chemical classes. Not every dose and run of a compound is shown. T/C: endpoint of the treated group in % of that of the vehicle group. Some entries give survivors of the animals treated and no T/C: the source holds a T/C of zero for them, seemingly a mark for toxic or unscored doses. Some doses without a T/C left all or most animals alive at the check, yet need not have been tolerated: the source hardly ever lists a survival T/C far under the control, and the zero likely stands for such cases as well. Counts of survivors are from the toxicity check (mostly the fifth day) where no day follows; animals may have died later. Schedule codes are those of the source, taken here to give the interval after Q, in days (D) or hours (H), and the number of doses after X. Where survival is the endpoint, this PubChem deposit counts one and a half times the control or more as active, and values a quarter to a half above the control carry no call in these data; other NCI protocols may use other cut-offs. Some T/C values are marked as having no survivor count here; that says nothing about deaths at the dose. Some entries hold several experiments; the results are listed from low to high. Some T/C values carry the count of animals alive at the toxicity check (mostly the fifth day); without a count or a note in brackets, all were alive then.

This assay relates to CD2F1 mice, L1210 leukemia ip, survival T/C. Nature of the assay: NCI In Vivo Anticancer Drug Screen. Data for tumor model L1210 Leukemia (intraperitoneal) in CD2F1 (CDF1) mice. Particulars: higher T/C = longer survival. The procedure, abridged: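 Compound-dosed mice with transplantable tumor versus matched vehicle controls; endpoint ratio T/C reported.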
The mark [1] stands for this setting: T/C endpoint: mean survival time, dose: 6.25 mg/kg/injection, schedule: Q01DX009 (ip), vehicle: Klucel (hydroxypropylcellulose) (HPC).
The mark [2] stands for this setting: T/C endpoint: mean survival time, dose: 12.5 mg/kg/injection, schedule: Q01DX009 (ip), vehicle: Klucel (hydroxypropylcellulose) (HPC).
Where [3] appears, read: T/C endpoint: mean survival time, dose: 25.0 mg/kg/injection, schedule: Q01DX009 (ip), vehicle: Klucel (hydroxypropylcellulose) (HPC).
Setting [4] is: T/C endpoint: mean survival time, dose: 50.0 mg/kg/injection, schedule: Q01DX009 (ip), vehicle: Klucel (hydroxypropylcellulose) (HPC).
Setting [5] is: T/C endpoint: mean survival time, dose: 100.0 mg/kg/injection, schedule: Q01DX009 (ip), vehicle: Klucel (hydroxypropylcellulose) (HPC).
[6] abbreviates: T/C endpoint: mean survival time, dose: 200.0 mg/kg/injection, schedule: Q01DX009 (ip), vehicle: Klucel (hydroxypropylcellulose) (HPC).

As to `CCC1(N(CCCl)CCCl)C(=O)NC(=O)NC1=O`, the T/C is 98 % of control [survivor count not shown] (T/C endpoint: mean survival time, dose: 25.0 mg/kg/injection, schedule: Q01DX009 (ip), vehicle: saline); 101 % of control [survivor count not shown] (T/C endpoint: mean survival time, dose: 25.0 mg/kg/injection, schedule: Q04DX002 (ip), vehicle: saline); 112 % of control [survivor count not shown] (T/C endpoint: mean survival time, dose: 50.0 mg/kg/injection, schedule: Q01DX009 (ip), vehicle: saline); 98 % of control [survivor count not shown] (T/C endpoint: mean survival time, dose: 50.0 mg/kg/injection, schedule: Q04DX002 (ip), vehicle: saline); 121 % of control [survivor count not shown] (T/C endpoint: mean survival time, dose: 100.0 mg/kg/injection, schedule: Q01DX009 (ip), vehicle: saline); 110 % of control [survivor count not shown] (T/C endpoint: mean survival time, dose: 100.0 mg/kg/injection, schedule: Q04DX002 (ip), vehicle: saline).
In the case of `CCOc1ccc(N(CCCl)CCCl)cc1`, the T/C is 101 % of control under setting [1]; 110 % of control under setting [2]; 115 % of control under setting [3]; 113 % of control under setting [4]; 100 % of control under setting [5]. Further, under setting [6], the survivor count is listed as 1 of 8.
Consider `ClCCN(CCCl)c1ccc(Cl)cc1`, for which the T/C under setting [1] was 97 % of control [survivor count not shown]; the T/C under setting [2] was 100 % of control [survivor count not shown]; the T/C under setting [3] is 95 [survivor count not shown] and 105 % of control [survivor count not shown]; the T/C under setting [4] was 101 [survivor count not shown] and 102 % of control [survivor count not shown]; the T/C under setting [5] was 92 [survivor count not shown] and 101 % of control [survivor count not shown]; the T/C under setting [6] was 103 [survivor count not shown] and 106 % of control [survivor count not shown]. For the same compound, the T/C is, setting by setting: (T/C endpoint: mean survival time, dose: 300.0 mg/kg/injection, schedule: Q01DX009 (ip), vehicle: Klucel (hydroxypropylcellulose) (HPC)) 98 % of control [survivor count not shown]; (T/C endpoint: mean survival time, dose: 400.0 mg/kg/injection, schedule: Q01DX009 (ip), vehicle: Klucel (hydroxypropylcellulose) (HPC)) 100 [survivor count not shown] and 102 % of control [survivor count not shown].
For `C/C(=N/OP(N)(=O)N(CCCl)CCCl)c1ccccc1` (stereo unspecified), the T/C (T/C endpoint: mean survival time, dose: 31.25 mg/kg/injection, schedule: Q01DX001 (ip), vehicle: distilled water + Tween-80) is 98 % of control; the T/C (T/C endpoint: mean survival time, dose: 62.5 mg/kg/injection, schedule: Q01DX001 (ip), vehicle: distilled water + Tween-80) was 98 % of control; the T/C (T/C endpoint: mean survival time, dose: 125.0 mg/kg/injection, schedule: Q01DX001 (ip), vehicle: distilled water + Tween-80) was 98 % of control; the T/C (T/C endpoint: mean survival time, dose: 250.0 mg/kg/injection, schedule: Q01DX001 (ip), vehicle: distilled water + Tween-80) was 98 % of control [5 of 6 alive]; the T/C (T/C endpoint: mean survival time, dose: 500.0 mg/kg/injection, schedule: Q01DX001 (ip), vehicle: distilled water + Tween-80) was 104 % of control.
Take `NC(Cc1cccc(N(CCCl)CCCl)c1)C(=O)O` (stereo unspecified): the T/C by setting is: (T/C endpoint: mean survival time, dose: 2.0 mg/kg/injection, schedule: Q01DX007 (ip), vehicle: saline) 138 % of control [survivor count not shown]; (T/C endpoint: mean survival time, dose: 2.0 mg/kg/injection, schedule: Q01DX009 (ip), vehicle: saline) 154 % of control [survivor count not shown]; (T/C endpoint: mean survival time, dose: 2.0 mg/kg/injection, schedule: Q03DX003 (ip), vehicle: saline) 145 % of control [survivor count not shown]; (T/C endpoint: mean survival time, dose: 2.0 mg/kg/injection, schedule: Q04DX003 (ip), vehicle: saline) 122 % of control [survivor count not shown]; (T/C endpoint: mean survival time, dose: 4.0 mg/kg/injection, schedule: Q01DX007 (ip), vehicle: saline) 132 % of control [survivor count not shown]; (T/C endpoint: mean survival time, dose: 4.0 mg/kg/injection, schedule: Q01DX009 (ip), vehicle: saline) 139 % of control [survivor count not shown]. Also, the T/C was 180 % of control [survivor count not shown] (T/C endpoint: mean survival time, dose: 4.0 mg/kg/injection, schedule: Q03DX003 (ip), vehicle: saline); 145 % of control [survivor count not shown] (T/C endpoint: mean survival time, dose: 4.0 mg/kg/injection, schedule: Q04DX003 (ip), vehicle: saline); 163 % of control [survivor count not shown] (T/C endpoint: mean survival time, dose: 8.0 mg/kg/injection, schedule: Q03DX003 (ip), vehicle: saline); 151 % of control [survivor count not shown] (T/C endpoint: mean survival time, dose: 8.0 mg/kg/injection, schedule: Q04DX003 (ip), vehicle: saline).
With `NC1CCCCC1.NNP(=O)(O)N(CCCl)CCCl`, the T/C reads like this: (T/C endpoint: mean survival time, dose: 25.0 mg/kg/injection, schedule: Q01DX001 (ip), vehicle: water) 97 % of control [survivor count not shown]; (T/C endpoint: mean survival time, dose: 50.0 mg/kg/injection, schedule: Q01DX001 (ip), vehicle: water) 101 % of control [survivor count not shown]; (T/C endpoint: mean survival time, dose: 100.0 mg/kg/injection, schedule: Q01DX001 (ip), vehicle: water) 105 % of control [survivor count not shown]; (T/C endpoint: mean survival time, dose: 200.0 mg/kg/injection, schedule: Q01DX001 (ip), vehicle: water) 117 % of control [survivor count not shown]; (T/C endpoint: mean survival time, dose: 400.0 mg/kg/injection, schedule: Q01DX001 (ip), vehicle: water) 128 % of control [survivor count not shown].
For `NC(Cc1ccccc1N(CCCl)CCCl)C(=O)O` (stereo unspecified), the T/C is, setting by setting: (T/C endpoint: mean survival time, dose: 0.25 mg/kg/injection, schedule: Q01DX010 (ip), vehicle: saline) 165 % of control [survivor count not shown]; (T/C endpoint: mean survival time, dose: 0.5 mg/kg/injection, schedule: Q01DX010 (ip), vehicle: saline) 180 % of control [survivor count not shown]; (T/C endpoint: mean survival time, dose: 1.0 mg/kg/injection, schedule: Q01DX010 (ip), vehicle: saline) 226 % of control [survivor count not shown]; (T/C endpoint: mean survival time, dose: 2.0 mg/kg/injection, schedule: Q01DX010 (ip), vehicle: saline) 98 % of control [survivor count not shown].
As for `CCC(C)(O)C#CCN(CCCl)CCCl` (stereo unspecified), the T/C is, setting by setting: (T/C endpoint: mean survival time, dose: 12.5 mg/kg/injection, schedule: Q01DX001 (ip), vehicle: saline) 121 % of control [survivor count not shown]; (T/C endpoint: mean survival time, dose: 25.0 mg/kg/injection, schedule: Q01DX001 (ip), vehicle: saline) 141 % of control [survivor count not shown].
For `S=C=Nc1ccc(N(CCCl)CCCl)cc1`, the T/C was 100 % of control [survivor count not shown] (T/C endpoint: mean survival time, dose: 100.0 mg/kg/injection, schedule: Q01DX001 (ip), vehicle: Klucel (hydroxypropylcellulose) (HPC)); 105 % of control [survivor count not shown] (T/C endpoint: mean survival time, dose: 200.0 mg/kg/injection, schedule: Q01DX001 (ip), vehicle: Klucel (hydroxypropylcellulose) (HPC)); 115 % of control [survivor count not shown] (T/C endpoint: mean survival time, dose: 400.0 mg/kg/injection, schedule: Q01DX001 (ip), vehicle: Klucel (hydroxypropylcellulose) (HPC)).
For the compound `Cc1ccc(N(CCBr)CCBr)cc1`, the T/C is, setting by setting: (T/C endpoint: mean survival time, dose: 3.12 mg/kg/injection, schedule: Q01DX009 (ip), vehicle: Klucel (hydroxypropylcellulose) (HPC)) 120 % of control; under setting [1], 106 % of control; (T/C endpoint: median survival time, dose: 3.12 mg/kg/injection, schedule: Q01DX009 (ip), vehicle: Klucel (hydroxypropylcellulose) (HPC)) 121 % of control [9 of 10 alive]; (T/C endpoint: median survival time, dose: 6.25 mg/kg/injection, schedule: Q01DX009 (ip), vehicle: Klucel (hydroxypropylcellulose) (HPC)) 98 % of control. Further, the survivor count reads like this: under setting [2], 6 of 6; under setting [3], 6 of 6; under setting [4], 3 of 6; under setting [5], 0 of 6; (T/C endpoint: median survival time, dose: 12.5 mg/kg/injection, schedule: Q01DX009 (ip), vehicle: Klucel (hydroxypropylcellulose) (HPC)) 9 of 10; (T/C endpoint: median survival time, dose: 25.0 mg/kg/injection, schedule: Q01DX009 (ip), vehicle: Klucel (hydroxypropylcellulose) (HPC)) 9 of 10. For the same compound, the survivor count runs as follows: (T/C endpoint: median survival time, dose: 50.0 mg/kg/injection, schedule: Q01DX009 (ip), vehicle: Klucel (hydroxypropylcellulose) (HPC)) 1 of 10; (T/C endpoint: median survival time, dose: 100.0 mg/kg/injection, schedule: Q01DX009 (ip), vehicle: Klucel (hydroxypropylcellulose) (HPC)) 0 of 10.
